In the assay the target is T1, p53 (Drosophila) (UniProt Q9N6D8).
T1 sequence: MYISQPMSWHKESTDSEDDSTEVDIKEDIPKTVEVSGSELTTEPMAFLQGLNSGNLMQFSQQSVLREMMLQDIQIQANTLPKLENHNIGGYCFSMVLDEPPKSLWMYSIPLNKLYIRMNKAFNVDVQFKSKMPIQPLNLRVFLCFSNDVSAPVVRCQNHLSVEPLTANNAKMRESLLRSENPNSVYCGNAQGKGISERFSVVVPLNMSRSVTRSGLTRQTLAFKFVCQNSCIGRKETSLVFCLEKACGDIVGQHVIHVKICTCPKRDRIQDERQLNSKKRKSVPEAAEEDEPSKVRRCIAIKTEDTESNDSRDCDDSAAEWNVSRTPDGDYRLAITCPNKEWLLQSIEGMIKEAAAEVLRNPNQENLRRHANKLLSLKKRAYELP
Nature of the assay: two-hybrid; yeast two-hybrid in EGY40 cells with pEG202 and pJG4-5 vectors; lacZ reporter, blue colonies; empty vectors as controls.

Results are given in words; binding and its absence hold for the method and conditions named. Binding calls can cover weak binding; strength is not graded here.

Here are results for one substance from publication PMC5738409.

For the substance “Cyclin domains of Cyclin G (Drosophila) (domain or fragment)”, the binding entry is “binds”.
